Numbering of substitutions follows the chain as printed. In names and notes the source's numbering stands. Results are given in words; binding and its absence hold for the method and conditions named. Some results given as binding are weak or reduced against the parent protein; the word gives no strength. For some of these results: Sequences can lack the tags named with a protein.
Columns and labels:
Assay in all cases: two-hybrid; Matchmaker Gold Yeast Two-Hybrid System (Clontech); GAL4-AD and GAL4-BD fusions of the same fragment co-transformed in yeast; α-galactosidase staining
[1] = molecular target: CMM2 fragment (aa 1730 to 1815) fused to the GAL4 activation and DNA-binding domains (Arabidopsis thaliana) (UniProt Q9M658)
[2] = molecular target: CMM2-mut2 (F1736P, L1737E, and L1740A) (Arabidopsis thaliana) (UniProt Q9M658)
[3] = molecular target: CMM2-mut3 (N1799A, I1802E, and L1806P) (Arabidopsis thaliana) (UniProt Q9M658)
[4] = molecular target: CMM2-mut1 (L1761D and L1765D) (Arabidopsis thaliana) (UniProt Q9M658)

B1: CMM2 fragment (aa 1730 to 1815) fused to the GAL4 activation and DNA-binding domains (domain or fragment, UniProt Q9M658 1730-1815)
chain: PVFNDPFLHELEKLRRESENSKKTFEEKKSILKAELERKMAEVQAEFRRKFHEVEAEHNTRTTKIEKDKNLVIMNKLLANAFLSKC
binding [1]: binds

B2: CMM2-mut2 (F1736P, L1737E, and L1740A) (domain or fragment, UniProt Q9M658 1730-1815)
chain: B1 chain with F7P, L8E, L11A
binding [2]: binds

B3: CMM2-mut3 (N1799A, I1802E, and L1806P) (domain or fragment, UniProt Q9M658 1730-1815)
chain: B1 chain with N70A, I73E, L77P
binding [3]: binds

B4: CMM2-mut1 (L1761D and L1765D) (domain or fragment, UniProt Q9M658 1730-1815)
chain: B1 chain with L32D, L36D
binding [4]: no binding

From paper PMC3276543, “Structural Basis of Transcriptional Gene Silencing Mediated by Arabidopsis MOM1” (PLoS Genetics, 2012)
